This is an account of results in publication doi:10.1101/2025.06.20.660715.

Amino acid sequences for entries named in this document (tags omitted).
UniProt Q8IVF2: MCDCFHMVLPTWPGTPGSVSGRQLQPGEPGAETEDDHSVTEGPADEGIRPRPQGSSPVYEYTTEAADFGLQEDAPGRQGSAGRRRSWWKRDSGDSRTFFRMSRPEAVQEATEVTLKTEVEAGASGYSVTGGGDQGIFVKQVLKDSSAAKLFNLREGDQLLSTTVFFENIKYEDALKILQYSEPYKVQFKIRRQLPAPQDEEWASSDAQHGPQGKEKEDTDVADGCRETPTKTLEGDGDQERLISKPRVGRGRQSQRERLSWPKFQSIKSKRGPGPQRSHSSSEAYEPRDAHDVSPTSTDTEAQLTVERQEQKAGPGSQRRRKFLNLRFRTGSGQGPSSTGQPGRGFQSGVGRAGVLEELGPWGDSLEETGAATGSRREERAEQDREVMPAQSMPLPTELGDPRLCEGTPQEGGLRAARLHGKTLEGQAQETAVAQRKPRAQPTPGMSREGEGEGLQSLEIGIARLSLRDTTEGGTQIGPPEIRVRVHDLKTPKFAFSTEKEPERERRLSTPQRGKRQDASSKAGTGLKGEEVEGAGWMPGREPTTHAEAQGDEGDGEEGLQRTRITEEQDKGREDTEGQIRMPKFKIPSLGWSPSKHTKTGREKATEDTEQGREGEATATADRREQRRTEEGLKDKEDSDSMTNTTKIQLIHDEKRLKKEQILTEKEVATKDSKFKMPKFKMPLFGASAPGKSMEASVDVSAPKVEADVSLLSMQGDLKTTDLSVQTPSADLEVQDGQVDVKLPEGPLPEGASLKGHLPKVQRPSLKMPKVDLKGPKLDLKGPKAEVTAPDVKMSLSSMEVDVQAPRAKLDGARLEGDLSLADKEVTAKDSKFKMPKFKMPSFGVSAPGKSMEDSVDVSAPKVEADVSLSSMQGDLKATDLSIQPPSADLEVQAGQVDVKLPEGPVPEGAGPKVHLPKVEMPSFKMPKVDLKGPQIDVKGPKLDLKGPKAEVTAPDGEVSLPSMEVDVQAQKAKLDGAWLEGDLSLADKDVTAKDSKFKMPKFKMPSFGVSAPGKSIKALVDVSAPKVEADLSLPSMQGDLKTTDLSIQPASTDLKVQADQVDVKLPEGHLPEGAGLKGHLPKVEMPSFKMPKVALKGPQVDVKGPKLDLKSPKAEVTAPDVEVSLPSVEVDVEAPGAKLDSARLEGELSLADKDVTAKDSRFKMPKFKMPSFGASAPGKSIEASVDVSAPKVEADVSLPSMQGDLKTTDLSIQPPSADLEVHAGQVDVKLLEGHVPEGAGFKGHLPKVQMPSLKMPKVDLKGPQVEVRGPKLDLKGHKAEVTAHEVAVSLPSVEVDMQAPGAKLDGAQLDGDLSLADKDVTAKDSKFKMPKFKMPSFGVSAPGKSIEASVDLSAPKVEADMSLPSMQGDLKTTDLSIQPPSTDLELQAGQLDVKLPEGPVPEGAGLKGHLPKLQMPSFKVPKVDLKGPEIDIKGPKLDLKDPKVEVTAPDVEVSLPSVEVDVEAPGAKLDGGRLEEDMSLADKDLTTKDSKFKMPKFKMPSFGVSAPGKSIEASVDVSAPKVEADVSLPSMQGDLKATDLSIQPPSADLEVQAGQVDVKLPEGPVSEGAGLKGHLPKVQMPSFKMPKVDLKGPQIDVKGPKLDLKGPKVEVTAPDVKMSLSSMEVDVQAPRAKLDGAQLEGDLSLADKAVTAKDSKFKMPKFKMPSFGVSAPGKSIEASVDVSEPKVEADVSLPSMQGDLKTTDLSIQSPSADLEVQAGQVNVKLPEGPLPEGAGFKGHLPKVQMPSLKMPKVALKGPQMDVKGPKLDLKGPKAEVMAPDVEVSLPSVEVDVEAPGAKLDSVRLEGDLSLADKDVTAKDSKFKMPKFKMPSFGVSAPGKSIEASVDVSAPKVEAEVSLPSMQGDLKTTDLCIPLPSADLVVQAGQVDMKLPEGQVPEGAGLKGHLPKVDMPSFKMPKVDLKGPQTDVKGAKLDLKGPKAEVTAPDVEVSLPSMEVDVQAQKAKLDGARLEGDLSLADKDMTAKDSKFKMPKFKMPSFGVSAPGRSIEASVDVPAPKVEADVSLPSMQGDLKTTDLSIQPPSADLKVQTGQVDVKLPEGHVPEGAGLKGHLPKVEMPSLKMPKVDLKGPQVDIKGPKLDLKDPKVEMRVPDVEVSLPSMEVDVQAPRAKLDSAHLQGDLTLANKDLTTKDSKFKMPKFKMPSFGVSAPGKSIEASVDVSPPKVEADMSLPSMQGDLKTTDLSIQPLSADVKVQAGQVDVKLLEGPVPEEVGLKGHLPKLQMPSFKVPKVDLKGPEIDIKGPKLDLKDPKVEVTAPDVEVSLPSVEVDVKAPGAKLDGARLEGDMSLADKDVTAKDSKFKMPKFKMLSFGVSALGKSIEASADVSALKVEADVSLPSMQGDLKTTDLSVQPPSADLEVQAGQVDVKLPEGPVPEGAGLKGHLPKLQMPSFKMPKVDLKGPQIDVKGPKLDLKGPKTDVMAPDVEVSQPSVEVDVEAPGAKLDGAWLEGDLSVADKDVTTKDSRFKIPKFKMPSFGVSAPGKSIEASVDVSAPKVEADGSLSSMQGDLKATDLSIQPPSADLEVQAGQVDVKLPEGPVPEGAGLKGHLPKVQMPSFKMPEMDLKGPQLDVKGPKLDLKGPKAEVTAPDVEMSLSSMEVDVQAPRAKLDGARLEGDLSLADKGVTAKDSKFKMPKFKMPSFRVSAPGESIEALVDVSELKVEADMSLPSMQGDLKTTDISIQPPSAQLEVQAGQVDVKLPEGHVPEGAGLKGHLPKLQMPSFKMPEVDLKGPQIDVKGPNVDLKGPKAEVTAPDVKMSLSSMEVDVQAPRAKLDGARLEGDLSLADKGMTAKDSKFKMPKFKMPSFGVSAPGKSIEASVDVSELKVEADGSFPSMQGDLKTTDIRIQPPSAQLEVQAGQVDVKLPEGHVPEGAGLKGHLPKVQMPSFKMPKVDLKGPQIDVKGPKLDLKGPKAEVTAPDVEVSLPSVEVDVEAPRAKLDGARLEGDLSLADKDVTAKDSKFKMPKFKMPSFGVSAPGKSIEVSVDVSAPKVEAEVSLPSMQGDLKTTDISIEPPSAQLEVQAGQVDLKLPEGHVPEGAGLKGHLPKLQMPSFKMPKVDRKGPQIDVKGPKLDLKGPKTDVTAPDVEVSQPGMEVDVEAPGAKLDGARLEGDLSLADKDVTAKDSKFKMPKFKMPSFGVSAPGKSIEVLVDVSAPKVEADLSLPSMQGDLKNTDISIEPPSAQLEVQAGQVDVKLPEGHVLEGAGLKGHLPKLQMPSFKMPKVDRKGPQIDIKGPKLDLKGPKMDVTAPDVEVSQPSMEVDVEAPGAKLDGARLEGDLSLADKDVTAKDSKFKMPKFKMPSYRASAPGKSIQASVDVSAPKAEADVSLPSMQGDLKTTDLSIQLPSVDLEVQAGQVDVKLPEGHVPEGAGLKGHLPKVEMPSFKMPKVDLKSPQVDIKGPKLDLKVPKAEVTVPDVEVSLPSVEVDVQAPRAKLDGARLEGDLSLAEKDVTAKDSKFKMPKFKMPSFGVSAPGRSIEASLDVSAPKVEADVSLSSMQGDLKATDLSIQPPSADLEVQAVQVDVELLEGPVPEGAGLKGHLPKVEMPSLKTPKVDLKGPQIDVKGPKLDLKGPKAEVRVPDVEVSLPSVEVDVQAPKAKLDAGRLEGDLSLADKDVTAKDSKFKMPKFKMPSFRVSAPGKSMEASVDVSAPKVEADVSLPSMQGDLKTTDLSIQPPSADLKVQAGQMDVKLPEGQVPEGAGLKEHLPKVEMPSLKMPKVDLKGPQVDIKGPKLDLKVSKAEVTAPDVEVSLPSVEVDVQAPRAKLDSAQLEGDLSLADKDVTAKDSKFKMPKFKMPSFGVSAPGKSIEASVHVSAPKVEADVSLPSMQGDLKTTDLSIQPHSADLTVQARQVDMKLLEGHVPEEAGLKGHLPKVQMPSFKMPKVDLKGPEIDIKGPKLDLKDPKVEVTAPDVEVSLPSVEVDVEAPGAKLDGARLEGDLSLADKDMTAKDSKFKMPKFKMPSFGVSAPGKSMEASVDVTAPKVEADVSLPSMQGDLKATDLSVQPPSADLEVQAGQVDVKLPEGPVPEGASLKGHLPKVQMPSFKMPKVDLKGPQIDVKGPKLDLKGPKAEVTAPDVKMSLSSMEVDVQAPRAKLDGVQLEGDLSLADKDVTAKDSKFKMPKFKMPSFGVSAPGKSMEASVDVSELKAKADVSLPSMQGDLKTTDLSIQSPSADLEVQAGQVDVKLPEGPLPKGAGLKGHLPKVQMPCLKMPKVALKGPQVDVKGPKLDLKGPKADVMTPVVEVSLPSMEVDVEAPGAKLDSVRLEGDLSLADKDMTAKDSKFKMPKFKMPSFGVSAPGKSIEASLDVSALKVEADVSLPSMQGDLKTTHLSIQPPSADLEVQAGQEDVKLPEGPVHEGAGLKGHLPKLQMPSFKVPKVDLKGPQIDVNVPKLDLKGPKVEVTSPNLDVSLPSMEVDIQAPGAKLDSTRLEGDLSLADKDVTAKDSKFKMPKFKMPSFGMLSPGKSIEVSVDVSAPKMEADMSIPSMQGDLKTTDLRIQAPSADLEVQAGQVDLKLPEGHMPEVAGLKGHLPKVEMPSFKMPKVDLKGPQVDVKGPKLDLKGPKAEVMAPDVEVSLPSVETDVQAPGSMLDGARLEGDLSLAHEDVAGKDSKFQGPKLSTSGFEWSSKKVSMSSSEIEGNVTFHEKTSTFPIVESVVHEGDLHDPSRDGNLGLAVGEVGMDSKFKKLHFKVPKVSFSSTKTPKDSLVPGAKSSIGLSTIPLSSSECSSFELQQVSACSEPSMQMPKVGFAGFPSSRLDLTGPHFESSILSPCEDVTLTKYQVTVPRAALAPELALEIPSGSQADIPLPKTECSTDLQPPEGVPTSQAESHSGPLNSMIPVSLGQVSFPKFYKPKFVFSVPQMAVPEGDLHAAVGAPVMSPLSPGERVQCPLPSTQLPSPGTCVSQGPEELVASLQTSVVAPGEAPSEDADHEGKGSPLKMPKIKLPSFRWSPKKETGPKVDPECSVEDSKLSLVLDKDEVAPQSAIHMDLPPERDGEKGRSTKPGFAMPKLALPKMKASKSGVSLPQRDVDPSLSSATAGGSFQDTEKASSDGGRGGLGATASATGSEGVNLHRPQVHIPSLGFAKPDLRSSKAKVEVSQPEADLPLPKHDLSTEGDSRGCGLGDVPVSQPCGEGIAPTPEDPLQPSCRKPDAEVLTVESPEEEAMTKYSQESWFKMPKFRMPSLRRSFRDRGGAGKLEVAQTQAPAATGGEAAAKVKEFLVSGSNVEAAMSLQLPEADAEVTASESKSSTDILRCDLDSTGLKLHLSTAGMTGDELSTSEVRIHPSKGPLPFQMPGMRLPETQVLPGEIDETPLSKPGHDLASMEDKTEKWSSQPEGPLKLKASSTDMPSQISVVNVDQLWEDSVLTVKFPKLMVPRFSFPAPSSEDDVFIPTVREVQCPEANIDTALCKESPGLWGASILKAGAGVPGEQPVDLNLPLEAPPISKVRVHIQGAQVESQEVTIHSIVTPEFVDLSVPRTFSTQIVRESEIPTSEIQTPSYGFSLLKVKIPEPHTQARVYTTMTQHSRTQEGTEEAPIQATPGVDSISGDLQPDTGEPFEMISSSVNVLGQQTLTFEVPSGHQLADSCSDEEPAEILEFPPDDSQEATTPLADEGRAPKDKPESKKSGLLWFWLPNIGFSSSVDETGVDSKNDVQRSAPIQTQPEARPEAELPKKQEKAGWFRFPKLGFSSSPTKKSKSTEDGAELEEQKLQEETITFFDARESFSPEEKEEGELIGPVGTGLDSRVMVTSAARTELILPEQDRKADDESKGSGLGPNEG
UniProt O94921: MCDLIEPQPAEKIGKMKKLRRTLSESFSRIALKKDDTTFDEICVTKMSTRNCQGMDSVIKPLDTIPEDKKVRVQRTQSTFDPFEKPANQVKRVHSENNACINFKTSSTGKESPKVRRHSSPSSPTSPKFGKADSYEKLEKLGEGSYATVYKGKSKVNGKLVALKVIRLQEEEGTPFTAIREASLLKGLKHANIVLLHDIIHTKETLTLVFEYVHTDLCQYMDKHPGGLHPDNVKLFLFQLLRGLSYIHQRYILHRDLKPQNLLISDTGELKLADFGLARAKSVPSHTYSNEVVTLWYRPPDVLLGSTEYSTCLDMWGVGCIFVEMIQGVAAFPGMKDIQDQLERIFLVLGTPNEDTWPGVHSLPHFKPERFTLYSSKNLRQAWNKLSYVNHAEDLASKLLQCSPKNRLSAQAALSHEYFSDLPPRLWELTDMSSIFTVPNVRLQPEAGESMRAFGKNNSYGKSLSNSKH

Common to all, as to test: proximity labelling
The target in one experiment is MiniTurbo-tagged KRAS^WT (UniProt P01116).
The target of experiment [1] is BirA-tagged KRAS^WT (UniProt P01116).
The target is the same in experiment [2]. This is another data set of the same source.

Read-outs that look alike come from different tables or passages of the source. No constants are given. Whether binding was seen depends on the method and setting. In cells and extracts the contact can be indirect. Here binding means that the protein was enriched with, or labelled near, the bait; the list need not be complete.

Take AHNAK2 (from UniProt Q8IVF2 1-5795): the binding entry with MiniTurbo-tagged KRAS^WT is “binds”. Take ARAP2 (from UniProt Q8WZ64 1-1704): the binding entry with MiniTurbo-tagged KRAS^WT is “binds”. “CDK14 (from UniProt O94921 1-469) (enzyme)”: in the experiment with MiniTurbo-tagged KRAS^WT, the binding result is reported as “binds”. GAB2 (from UniProt Q9UQC2 1-676): the binding entry with BirA-tagged KRAS^WT [1] and in the experiment with BirA-tagged KRAS^WT [2] was “binds” throughout. As to “PKN3 (from UniProt Q6P5Z2 1-889) (enzyme)”, in the experiment with MiniTurbo-tagged KRAS^WT, the binding entry is recorded as “binds”.

Consider PRKAG2 (from UniProt Q9UGJ0 1-569), for which the binding result with MiniTurbo-tagged KRAS^WT is reported as “binds”. Consider “SHP2 (PTPN11) (from UniProt Q06124 1-593) (enzyme)”, for which the binding entry with BirA-tagged KRAS^WT [1] and in the experiment with BirA-tagged KRAS^WT [2] was “binds” in each case. As for SHTN1 (from UniProt A0MZ66 1-631), the binding entry in the experiment with MiniTurbo-tagged KRAS^WT is recorded as “binds”.
